Patent US9861099B2, “Composition for enhancing plant disease control effect of monosaccharide” (MITSUI CHEMICALS AGRO, INC., priority 2013, dated 2018)

System: Pseudoperonospora cubensis
Assay: Cucumber downy mildew (CDM) control test
Type: in vivo
Settings: Table 8: D-tagatose liquid preparation with assistant (5 parts), 10-fold dilution (D-tagatose 0.5%+assistant 0.5%); improvement vs D-tagatose only

NCCC[C@H](N)C(=O)O [L-ornithine]
Evaluation Score CDM: 3 (Improvement in preventive value of 20 to less than 30)
